# Library screen at single concentrations

Chains of the proteins cited; added tags and fusions are not shown. Residues count along the entry.
UniProt Q4DA54, 1-478: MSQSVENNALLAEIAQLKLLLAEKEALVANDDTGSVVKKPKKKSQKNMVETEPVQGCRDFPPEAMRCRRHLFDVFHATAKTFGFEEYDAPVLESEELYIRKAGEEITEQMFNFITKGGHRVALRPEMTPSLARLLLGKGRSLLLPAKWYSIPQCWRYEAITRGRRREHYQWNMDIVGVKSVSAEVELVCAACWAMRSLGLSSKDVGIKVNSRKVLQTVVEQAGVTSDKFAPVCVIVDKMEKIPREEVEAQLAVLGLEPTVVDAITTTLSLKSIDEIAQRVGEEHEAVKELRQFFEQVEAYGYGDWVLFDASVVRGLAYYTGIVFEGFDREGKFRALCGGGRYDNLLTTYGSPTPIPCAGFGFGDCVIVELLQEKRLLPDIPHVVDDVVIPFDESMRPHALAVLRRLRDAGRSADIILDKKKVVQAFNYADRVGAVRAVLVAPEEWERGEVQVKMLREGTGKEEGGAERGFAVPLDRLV
UniProt P9WNZ1, whole entry: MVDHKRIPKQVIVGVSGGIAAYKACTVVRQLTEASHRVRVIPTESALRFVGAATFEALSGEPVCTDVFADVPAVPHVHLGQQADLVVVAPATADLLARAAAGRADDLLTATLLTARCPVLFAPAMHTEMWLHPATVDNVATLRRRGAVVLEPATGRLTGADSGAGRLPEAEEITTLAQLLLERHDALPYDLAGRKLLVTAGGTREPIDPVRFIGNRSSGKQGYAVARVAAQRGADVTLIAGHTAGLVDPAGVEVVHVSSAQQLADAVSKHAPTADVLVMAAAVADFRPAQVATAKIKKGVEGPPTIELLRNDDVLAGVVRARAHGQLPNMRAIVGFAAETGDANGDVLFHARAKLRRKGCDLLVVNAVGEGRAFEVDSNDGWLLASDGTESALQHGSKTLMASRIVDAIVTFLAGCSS
UniProt A4I591, 1-473: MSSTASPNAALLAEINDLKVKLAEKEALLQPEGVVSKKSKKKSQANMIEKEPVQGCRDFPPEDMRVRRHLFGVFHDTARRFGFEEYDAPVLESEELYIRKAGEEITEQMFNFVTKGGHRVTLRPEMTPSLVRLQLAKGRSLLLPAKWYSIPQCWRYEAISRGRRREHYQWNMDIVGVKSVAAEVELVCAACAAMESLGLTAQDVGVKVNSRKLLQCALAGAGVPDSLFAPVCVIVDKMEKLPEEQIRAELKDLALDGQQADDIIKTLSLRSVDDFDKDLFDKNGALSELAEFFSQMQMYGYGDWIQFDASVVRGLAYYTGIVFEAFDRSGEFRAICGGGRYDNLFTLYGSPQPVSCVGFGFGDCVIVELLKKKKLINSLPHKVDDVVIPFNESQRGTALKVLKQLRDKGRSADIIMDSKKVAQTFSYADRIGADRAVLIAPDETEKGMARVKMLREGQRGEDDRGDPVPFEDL

Measurements from “University of Dundee, Small-Polar-MMV Screening Library” (2021), ChEMBL document CHEMBL3988442.

The filed quantity is “Percent Effect” (%). The controls that fix the scale are not given in the record; negative values are as filed. Compounds were drawn at random from those tested, without regard to their results. Two or more numbers in one place are separate tests of the same structure; such repeats can differ widely. A dash means the value is not listed here; it may have been measured.

TcHisRS: 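Enzyme assay of histidyl-tRNA synthetase; the read-out is not stated. Target: Histidine-tRNA ligase, Trypanosoma cruzi CL Brener (UniProt Q4DA54). Concentration: 30 µM. Higher reads as stronger inhibition (inferred: compounds with an IC50 in retests scored well above the rest). Size under these conditions: about 69,000 compounds, about 31 of them at 50% or above in at least one test.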
Leishmania in macrophages: 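Cell assay of Leishmania donovani living inside macrophages; the read-out is not stated. Concentration: 30 µM. Direction is inferred from retests: higher values go with stronger inhibition. Of about 69,000 compounds tested this way, about 1,000 (1.5%) reached 50% or more in at least one test.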
Toxoplasma: 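Assay of Toxoplasma gondii numbers, read through their beta-galactosidase reporter with a colour substrate. Tested at 10 µM. Higher reads as fewer parasites (inferred from which compounds were picked for retests). Size under these conditions: about 67,000 compounds, about 260 of them at 50% or above in at least one test.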
CoaBC: 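Enzyme assay of CoaBC with a phosphate dye (Biomol Green) read at 650 nm. Target: Coenzyme A biosynthesis protein CoaBC, Mycobacterium tuberculosis (UniProt P9WNZ1). Tested at 30 µM. Direction is inferred from only a few compounds that gave an IC50; most scored high, so higher reads as stronger inhibition. Most strong results did not repeat in a second test. About 67,000 compounds were tested under these conditions; 0.06% (about 40) showed 50% or more at least once.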
LiHisRS: 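Enzyme assay of histidyl-tRNA synthetase; the read-out is not stated. Target: Histidine-tRNA ligase, Leishmania infantum (UniProt A4I591). Compounds at 30 µM. Higher reads as stronger inhibition (inferred: compounds with an IC50 in retests scored well above the rest). The assay is labelled LdHisRS but filed under L. infantum. Size under these conditions: about 69,000 compounds, about 410 of them at 50% or above in at least one test.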

SMILES,TcHisRS,Leishmania in macrophages,Toxoplasma,CoaBC,LiHisRS
O=C(O)C(F)(F)F.O=C(O)C(F)(F)F.[H][C@]12CCCC(N(C)Cc3ccccn3)[C@@]1([H])CN(CC1CC1)C2 (some centres not stated),-,11.94%,26.15%,-,-
Cn1cnnc1C1CCCN(C(=O)c2cnc3ccccc3n2)C1 (configuration not stated),4.906%,-18.95%,-6.556%,-,10.67%
COCc1ccc(C(=O)N2CCC(Oc3ccccc3OC)CC2)s1,4.878%,-66.05%,-12.87%,-0.3797%,10.84%
CC(NC(=O)N1CCN(c2ncccn2)CC1)c1ccc(C#N)cc1 (configuration not stated),6.806%,-4.989%,10.64%,-3.212%,12.07%
CN1C(=O)CC(c2ccncc2)C12CCN(c1ncccn1)CC2 (configuration not stated),4.124%,-,-,0%,20%
CN(CCNc1ncc2c(n1)CCN2c1ccccc1)S(C)(=O)=O,6.977%,14.06%,-2.841%,12.88%,29.51%
CCCc1nnsc1C(=O)N1CCN(CC(O)C2CC2)CC1.Cl (configuration not stated),-,0.8597% and -6.786%,-22.39%,-,-
COc1ccccc1Oc1cncc(C2CCCN(CC(N)=O)C2)n1 (configuration not stated),6.084%,28.53%,6.353%,15.45%,11.72%
Cc1cccnc1CC(C)Nc1nc(N)nc2c1CCNC2 (configuration not stated),0.5525%,-5.236%,4.59%,-3.571%,13.54%
COc1ccccc1N1CCN(C(=O)CSC(C)C)C(C)C1 (configuration not stated),-9.662%,-19.97%,-10.49%,-0.6211%,10.83%
COc1ncnc2c1CCN(C(=O)NCc1cccnc1)CC2,5.464%,-,-,2.397%,12.28%
CCc1c(C)sc(NC(=O)CN2CCOCC2)c1C(=O)OC,3.518%,-39.48%,2.129%,4.452%,2.247%
O=C(Cc1ccccc1Cl)N1CCCC(n2cncn2)C1 (configuration not stated),1.527%,6.784%,-1.128%,3.627%,14.89%
CC1=C(C(=O)N2CCOC(Cc3cccc(C(F)(F)F)c3)C2)OCCO1 (configuration not stated),1.093%,12.86%,5.69%,7.625%,-1.754%
CC1(C)CN(CC(F)(F)F)CCN1CC(=O)NC1CC1,5.952%,6.088%,-2.488%,1.471%,15.56%
CCc1ocnc1C(=O)N1CCN(c2nncc3ccccc23)CC1,2.941%,17.28%,-3.977%,3.74%,7.563%
Cc1cnn(CC2CCCN2C(=O)Cc2c(C)noc2C)c1 (configuration not stated),-5%,11.21%,7.539%,-5.665%,2.74%
Cc1ccc(N2CCCC(NCc3cccc4c3OCO4)C2)nn1 (configuration not stated),5.523%,9.769%,0.43%,3.143%,13.16%
CN1CC[C@]2(CN(CC3CCOC3)C[C@H]2c2ccccc2)C1=O (some centres not stated),-3.911%,-,-,-3.03%,-5.769%
O=C(NCCc1c[nH]cn1)c1ccc2c(c1)C(=O)N(C1CC1)C2=O,0.5464%,5.358%,-4.662%,3.096%,-11.65%
O=C(CCc1cccs1)N1CCC(Nc2cccnn2)CC1,-1.515%,14.56%,-9.73%,11.19%,7.576%
NC(=O)NCC(=O)N1CCC(c2cc(-c3ccccc3Cl)n[nH]2)CC1,5.051%,17.89%,2.53%,4.859%,16.39%
CN1CCN(c2ccc3ccc(C(=O)N4CCCCO4)cn23)CC1.O=C(O)C(F)(F)F,-,13.36%,-0.947%,-,-
c1ccc(CN2CCC3(CC2)CCN(c2ccccn2)C3)nc1,7.735%,-,-,0.7426%,13.51%
COCCOc1ccc(CNc2nc3ccccc3nc2N)cn1,14%,49.57%,11.91%,5.785%,16.33%
COc1cc(OC)cc(C2SCC(=O)Nc3ccsc32)c1 (configuration not stated),-1.136%,25.91%,-8.099%,7.495%,1.667%
Cc1nc2c(c(N3CCCC(OCc4ccccn4)C3)n1)CCNCC2 (configuration not stated),0.4975%,17.35%,7.968%,3.951%,4.196%
c1ccc(-c2noc(CNC3CCc4ncnn4C3)n2)nc1 (configuration not stated),1.149%,-2.495%,3.123%,5.396%,3.077%
CN(Cc1ccncc1)C(=O)Nc1cnn(CC2CCCO2)c1 (configuration not stated),1.667%,16.61%,-1.616%,1.919%,11.54%
[H][C@@]12CO[C@@H](CNC(=O)c3nccn3C)[C@]1([H])CCN(S(C)(=O)=O)C2,-,30.87%,-14.71%,-,-
Cc1cccc(N2CC[C@@H]3CN(C(=O)c4ccco4)CCO[C@@H]3C2)n1,8.197%,-,-,-6.218%,18.25%
COCCC(=O)N1CCC2(COCc3cnc(-c4ccccc4)nc32)C1 (configuration not stated),0.5464%,-0.5217%,-3.05%,-1.036%,6.569%

Once more, the final 4:

{"smiles": "CN(Cc1ccncc1)C(=O)Nc1cnn(CC2CCCO2)c1", "stereo": "configuration not stated", "TcHisRS": 1.667, "Leishmania in macrophages": 16.61, "Toxoplasma": -1.616, "CoaBC": 1.919, "LiHisRS": 11.54}
{"smiles": "[H][C@@]12CO[C@@H](CNC(=O)c3nccn3C)[C@]1([H])CCN(S(C)(=O)=O)C2", "Leishmania in macrophages": 30.87, "Toxoplasma": -14.71}
{"smiles": "Cc1cccc(N2CC[C@@H]3CN(C(=O)c4ccco4)CCO[C@@H]3C2)n1", "TcHisRS": 8.197, "CoaBC": -6.218, "LiHisRS": 18.25}
{"smiles": "COCCC(=O)N1CCC2(COCc3cnc(-c4ccccc4)nc32)C1", "stereo": "configuration not stated", "TcHisRS": 0.5464, "Leishmania in macrophages": -0.5217, "Toxoplasma": -3.05, "CoaBC": -1.036, "LiHisRS": 6.569}